Chains of the proteins cited; added tags and fusions are not shown.
UniProt Q06609, whole entry K133A: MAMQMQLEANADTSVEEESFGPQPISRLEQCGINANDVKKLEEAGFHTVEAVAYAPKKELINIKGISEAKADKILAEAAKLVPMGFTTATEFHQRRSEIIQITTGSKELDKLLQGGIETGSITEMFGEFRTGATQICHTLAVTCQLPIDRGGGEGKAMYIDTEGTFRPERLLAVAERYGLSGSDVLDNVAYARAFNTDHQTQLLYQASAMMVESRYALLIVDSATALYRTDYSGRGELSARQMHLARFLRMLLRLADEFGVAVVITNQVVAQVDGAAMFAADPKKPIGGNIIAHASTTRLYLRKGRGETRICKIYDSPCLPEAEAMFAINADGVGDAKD
UniProt Q06609, whole entry K133R: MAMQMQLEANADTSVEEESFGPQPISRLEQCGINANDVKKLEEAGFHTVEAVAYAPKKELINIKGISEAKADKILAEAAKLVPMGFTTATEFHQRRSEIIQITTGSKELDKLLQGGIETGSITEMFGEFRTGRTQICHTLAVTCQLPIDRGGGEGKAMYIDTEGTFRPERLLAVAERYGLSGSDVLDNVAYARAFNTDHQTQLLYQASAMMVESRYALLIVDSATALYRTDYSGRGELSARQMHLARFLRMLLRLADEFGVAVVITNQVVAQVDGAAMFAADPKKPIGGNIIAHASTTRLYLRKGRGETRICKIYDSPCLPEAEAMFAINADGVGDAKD
UniProt Q06609, whole entry I287T: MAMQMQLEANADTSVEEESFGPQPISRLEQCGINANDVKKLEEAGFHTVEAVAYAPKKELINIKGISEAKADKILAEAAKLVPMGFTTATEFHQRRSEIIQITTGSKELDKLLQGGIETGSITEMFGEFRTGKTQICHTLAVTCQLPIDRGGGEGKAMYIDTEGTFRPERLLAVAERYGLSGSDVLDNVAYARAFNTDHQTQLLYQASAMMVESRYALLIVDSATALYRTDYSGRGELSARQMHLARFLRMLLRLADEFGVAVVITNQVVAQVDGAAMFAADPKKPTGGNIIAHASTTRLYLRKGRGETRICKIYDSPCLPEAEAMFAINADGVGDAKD

In PMC7797033:

What was measured:
Assay in all cases: BLI
Conditions in all cases: 2 mM ATP, 2 mM Mg2+, filament then disrupted by RECQ5/BRC3; BLI: 25 mM Tris-HCl pH 7.5, 50 mM KCl, 2 mM MgCl2, 200 ug/mL BSA, 0.05% Tween 20, 2 mM ATP, room temperature; recombinant protein; label: 5' biotin; single-stranded DNA
RAD51-K133A (human) = RAD51-K133A (human) (UniProt Q06609)
RAD51-K133R (human) = RAD51-K133R (human) (UniProt Q06609)
RAD51-I287T (human) = RAD51-I287T (human) (UniProt Q06609)

Measured: binding result

TTTTTTTTTTTTTTTTTTTTTTTTTTTTTTTTTTTTTTTTTTT [dT43-mer]
binds: all assays above

The exact form of at least one protein or probe is not confirmed. At least one verdict was read from the data and is not stated in words by the source.
